Results deposited as PubChem BioAssay AID1224830 (NIAID, 2016).
The deposit covers about 18,000 reagents; this is an unselected part. About 2,900 of all reagents (16%) were called active. 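Calls are made per well; low scores hint the gene aids the LPS response, high scores that it dampens it.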 Repeated entries: four replicate wells of each siRNA pool.

Aim: 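Host factors that control LPS-induced TNF expression in human macrophages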 (primary screen)
Cell system: human THP-1 monocytic leukaemia cells, TNF dual-luciferase reporter clone, PMA-differentiated to macrophage-like cells
Reagents: siRNA pool against human genes, 50 nM
Duration: LPS for 4 h, given about 3 days after siRNA transfection
Treatment: bacterial LPS (TLR4 ligand), 10 ng/ml
Measurement: 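TNF firefly reporter luminescence divided by renilla, normalised to the plate median, then turned into a robust z-score for each replicate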
Reading the numbers: TNF reporter robust z-score: higher = stronger TNF reporter response to LPS
Active means: 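a well is active when its z-score exceeds 2.8 or falls below -1.5; control wells carry no call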

{"gene symbol": "STK25 (GeneID 10494)", "TNF reporter robust z-score": 1.53, "Outcome": "inactive"}
{"gene symbol": "STK25 (GeneID 10494)", "TNF reporter robust z-score": 0.86, "Outcome": "inactive"}
{"gene symbol": "STK25 (GeneID 10494)", "TNF reporter robust z-score": 1.71, "Outcome": "inactive"}
{"gene symbol": "STK25 (GeneID 10494)", "TNF reporter robust z-score": 2.12, "Outcome": "inactive"}
{"gene symbol": "SPTBN5 (GeneID 51332)", "TNF reporter robust z-score": 0.13, "Outcome": "inactive"}
{"gene symbol": "SPTBN5 (GeneID 51332)", "TNF reporter robust z-score": 0.57, "Outcome": "inactive"}
{"gene symbol": "SPTBN5 (GeneID 51332)", "TNF reporter robust z-score": 0.4, "Outcome": "inactive"}
{"gene symbol": "SPTBN5 (GeneID 51332)", "TNF reporter robust z-score": -0.39, "Outcome": "inactive"}
{"gene symbol": "MYO5A (GeneID 4644)", "TNF reporter robust z-score": -0.18, "Outcome": "inactive"}
{"gene symbol": "MYO5A (GeneID 4644)", "TNF reporter robust z-score": 1.79, "Outcome": "inactive"}
{"gene symbol": "MYO5A (GeneID 4644)", "TNF reporter robust z-score": 1.19, "Outcome": "inactive"}
{"gene symbol": "MYO5A (GeneID 4644)", "TNF reporter robust z-score": 1.01, "Outcome": "inactive"}
{"gene symbol": "PHACTR1 (GeneID 221692)", "TNF reporter robust z-score": 4.51, "Outcome": "active"}
{"gene symbol": "PHACTR1 (GeneID 221692)", "TNF reporter robust z-score": 1.17, "Outcome": "inactive"}
{"gene symbol": "PHACTR1 (GeneID 221692)", "TNF reporter robust z-score": 0.37, "Outcome": "inactive"}
{"gene symbol": "PHACTR1 (GeneID 221692)", "TNF reporter robust z-score": 0.46, "Outcome": "inactive"}
{"gene symbol": "MARCKS (GeneID 4082)", "TNF reporter robust z-score": 0.58, "Outcome": "inactive"}
{"gene symbol": "MARCKS (GeneID 4082)", "TNF reporter robust z-score": 1.44, "Outcome": "inactive"}
{"gene symbol": "MARCKS (GeneID 4082)", "TNF reporter robust z-score": 0.28, "Outcome": "inactive"}
{"gene symbol": "MARCKS (GeneID 4082)", "TNF reporter robust z-score": -0.17, "Outcome": "inactive"}
{"gene symbol": "SLC9A9 (GeneID 285195)", "TNF reporter robust z-score": -1.37, "Outcome": "inactive"}
{"gene symbol": "SLC9A9 (GeneID 285195)", "TNF reporter robust z-score": -0.43, "Outcome": "inactive"}
{"gene symbol": "SLC9A9 (GeneID 285195)", "TNF reporter robust z-score": -0.66, "Outcome": "inactive"}
{"gene symbol": "SLC9A9 (GeneID 285195)", "TNF reporter robust z-score": -0.47, "Outcome": "inactive"}
{"gene symbol": "IER5L (GeneID 389792)", "TNF reporter robust z-score": 0.32, "Outcome": "inactive"}
{"gene symbol": "IER5L (GeneID 389792)", "TNF reporter robust z-score": 0.35, "Outcome": "inactive"}
{"gene symbol": "IER5L (GeneID 389792)", "TNF reporter robust z-score": 0, "Outcome": "inactive"}
{"gene symbol": "IER5L (GeneID 389792)", "TNF reporter robust z-score": 0.75, "Outcome": "inactive"}
{"gene symbol": "P4HA2 (GeneID 8974)", "TNF reporter robust z-score": 0.46, "Outcome": "inactive"}
{"gene symbol": "P4HA2 (GeneID 8974)", "TNF reporter robust z-score": 1.01, "Outcome": "inactive"}
{"gene symbol": "P4HA2 (GeneID 8974)", "TNF reporter robust z-score": 1.11, "Outcome": "inactive"}
{"gene symbol": "P4HA2 (GeneID 8974)", "TNF reporter robust z-score": 0.08, "Outcome": "inactive"}
{"gene symbol": "ZNF324 (GeneID 25799)", "TNF reporter robust z-score": 2.74, "Outcome": "inactive"}
{"gene symbol": "ZNF324 (GeneID 25799)", "TNF reporter robust z-score": 3.76, "Outcome": "active"}
{"gene symbol": "ZNF324 (GeneID 25799)", "TNF reporter robust z-score": 3.44, "Outcome": "active"}
{"gene symbol": "ZNF324 (GeneID 25799)", "TNF reporter robust z-score": 3.7, "Outcome": "active"}
{"gene symbol": "PCGF2 (GeneID 7703)", "TNF reporter robust z-score": -0.7, "Outcome": "inactive"}
{"gene symbol": "PCGF2 (GeneID 7703)", "TNF reporter robust z-score": -0.91, "Outcome": "inactive"}
{"gene symbol": "PCGF2 (GeneID 7703)", "TNF reporter robust z-score": -1.23, "Outcome": "inactive"}
{"gene symbol": "PCGF2 (GeneID 7703)", "TNF reporter robust z-score": -0.23, "Outcome": "inactive"}
{"gene symbol": "CMTM7 (GeneID 112616)", "TNF reporter robust z-score": 1.16, "Outcome": "inactive"}
{"gene symbol": "CMTM7 (GeneID 112616)", "TNF reporter robust z-score": 0.53, "Outcome": "inactive"}
{"gene symbol": "CMTM7 (GeneID 112616)", "TNF reporter robust z-score": -0.02, "Outcome": "inactive"}
{"gene symbol": "CMTM7 (GeneID 112616)", "TNF reporter robust z-score": 0.51, "Outcome": "inactive"}
{"gene symbol": "TEX261 (GeneID 113419)", "TNF reporter robust z-score": -0.23, "Outcome": "inactive"}
{"gene symbol": "TEX261 (GeneID 113419)", "TNF reporter robust z-score": 0.57, "Outcome": "inactive"}
{"gene symbol": "TEX261 (GeneID 113419)", "TNF reporter robust z-score": 1.61, "Outcome": "inactive"}
{"gene symbol": "TEX261 (GeneID 113419)", "TNF reporter robust z-score": -0.45, "Outcome": "inactive"}
